Measured values published in patent US9994617B2, “Modulation of structured polypeptide specificity” (BICYCLE THERAPEUTICS LIMITED, priority 2011, dated 2018).
No constants are given. Whether binding was seen depends on the method and setting.

T1: Human factor XIIa (hfXIIa) (human) (UniProt P00748)
T1 sequence (looked up): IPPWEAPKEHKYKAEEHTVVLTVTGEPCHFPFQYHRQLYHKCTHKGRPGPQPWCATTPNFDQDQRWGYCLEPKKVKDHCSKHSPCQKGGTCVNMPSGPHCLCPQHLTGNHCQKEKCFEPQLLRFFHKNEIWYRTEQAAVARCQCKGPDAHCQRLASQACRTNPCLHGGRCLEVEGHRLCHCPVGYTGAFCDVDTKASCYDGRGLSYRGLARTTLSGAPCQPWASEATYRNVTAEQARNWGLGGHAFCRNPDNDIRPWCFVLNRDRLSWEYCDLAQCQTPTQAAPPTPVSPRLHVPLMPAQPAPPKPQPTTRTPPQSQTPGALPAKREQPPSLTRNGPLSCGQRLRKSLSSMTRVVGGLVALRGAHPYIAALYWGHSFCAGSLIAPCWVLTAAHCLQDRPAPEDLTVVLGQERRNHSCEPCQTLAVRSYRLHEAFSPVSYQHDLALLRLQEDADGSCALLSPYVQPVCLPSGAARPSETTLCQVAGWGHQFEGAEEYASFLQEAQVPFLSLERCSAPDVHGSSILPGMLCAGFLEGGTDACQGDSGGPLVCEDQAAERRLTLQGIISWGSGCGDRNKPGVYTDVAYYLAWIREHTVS


The binders below were run against T1, Human factor XIIa (hfXIIa) (human) (assay: protease inhibition assay (quantity not given)).

**Q.** With ACRWPARCTHQNYCA (three Cys linked to TBMB scaffold; free N-terminus; amidated C-terminus) [06-54 (2A2) T] as the binder, how does the binding read?
**A.** The binding was “no binding (tested: 10000 (unit not printed))”.

**Q.** How did the binding turn out when ACAWPARCLTVDLCA (three Cys linked to TBMB scaffold; free N-terminus; amidated C-terminus) [06-01] was run?
**A.** The binding was “no binding (tested: 10000 (unit not printed))”.

**Q.** How did the binding turn out when ACSWPARCNHQDLCA (three Cys linked to TBMB scaffold; free N-terminus; amidated C-terminus) [06-57] was run?
**A.** The binding was “no binding (tested: 10000 (unit not printed))”.

**Q.** With ACRWPARCLTTSLCA (three Cys linked to TBMB scaffold; free N-terminus; amidated C-terminus) [06-59] as the binder, how does the binding read?
**A.** The binding was “no binding (tested: 10000 (unit not printed))”.

**Q.** ACTWPARCTHQNWCA (three Cys linked to TBMB scaffold; free N-terminus; amidated C-terminus) [06-09] was tested. Which binding did it give?
**A.** The binding was “no binding (tested: 10000 (unit not printed))”.

**Q.** With ACNWPYRCLHTDLCA (three Cys linked to TBMB scaffold; free N-terminus; amidated C-terminus) [06-157] as the binder, how does the binding read?
**A.** Its binding is “no binding (tested: 10000 (unit not printed))”.

**Q.** With ACSWPYRCLHQDYCA (three Cys linked to TBMB scaffold; free N-terminus; amidated C-terminus) [06-61] as the binder, how does the binding read?
**A.** Its binding is “no binding (tested: 10000 (unit not printed))”.

**Q.** Which binding does the source give for ACGVPYRCTHQEMCA (three Cys linked to TBMB scaffold; free N-terminus; amidated C-terminus) [06-64 T (5 x 5 peptide of Table 4)] here?
**A.** Its binding is “no binding (tested: 10000 (unit not printed))”.

**Q.** With ACTWPARCTMQNWCA (three Cys linked to TBMB scaffold; free N-terminus; amidated C-terminus) [06-A2*] as the binder, how does the binding read?
**A.** The binding was “no binding (tested: 10000 (unit not printed))”.

**Q.** ACADPWACLFRRPCA (three Cys linked to TBMB scaffold; free N-terminus; amidated C-terminus) [06-63 T] was tested. Which binding did it give?
**A.** Its binding is “no binding (tested: 10000 (unit not printed))”.

Each binder was assayed against T1, Human factor XIIa (hfXIIa) (human) (assay: protease inhibition assay).

**Q.** For ACRWPARCTHQNYCA (three Cys linked to TBMB scaffold; free N-terminus; amidated C-terminus) [06-54 (2A2) T], which binding is on record?
**A.** Its binding is “no binding (tested: 100 µM)”.
